PubChem BioAssay AID1224830 | NIAID | 2016
Assay: 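Regulators of TLR4 signalling towards TNF-alpha in macrophage-like cells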 (primary screen). Cell system: human THP-1 monocytic leukaemia cells, TNF dual-luciferase reporter clone, PMA-differentiated to macrophage-like cells. Knock-down reagent: siRNA pool against human genes, 50 nM. Duration: LPS for 4 h, given about 3 days after siRNA transfection. Treatment: bacterial LPS (TLR4 ligand), 10 ng/ml. Detection: 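Ratio of firefly to renilla light, scaled to the plate median and expressed as a robust z-score per replicate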. Direction: TNF reporter robust z-score: higher = stronger TNF reporter response to LPS. Call rule: 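a well is active when its z-score exceeds 2.8 or falls below -1.5; control wells carry no call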.
This is an unselected part of about 18,000 reagents. Of all reagents, about 2,900 (16%) were called active. 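Calls are made per well; low scores hint the gene aids the LPS response, high scores that it dampens it.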 Entries without a mark were called inactive. Repeated entries: four replicate wells of each siRNA pool.

no.	gene	TNF reporter robust z-score
1	CWC27 (GeneID 10283)	-0.64
2	CWC27 (GeneID 10283)	-0.56
3	CWC27 (GeneID 10283)	0.09
4	CWC27 (GeneID 10283)	0.51
5	TAS2R10 (GeneID 50839)	-1.22
6	TAS2R10 (GeneID 50839)	-0.2
7	TAS2R10 (GeneID 50839)	-0.37
8	TAS2R10 (GeneID 50839)	0.25
9	CCR9 (GeneID 10803)	-0.77
10	CCR9 (GeneID 10803)	0.98
11	CCR9 (GeneID 10803)	-1.2
12	CCR9 (GeneID 10803)	0.45
13	DCUN1D1 (GeneID 54165)	-0.95
14	DCUN1D1 (GeneID 54165)	0.46
15	DCUN1D1 (GeneID 54165)	-0.4
16	DCUN1D1 (GeneID 54165)	-0.52
17	EPSTI1 (GeneID 94240)	0.09
18	EPSTI1 (GeneID 94240)	-0.04
19	EPSTI1 (GeneID 94240)	0.05
20	EPSTI1 (GeneID 94240)	0.27
21	MCUR1 (GeneID 63933)	0.92
22	MCUR1 (GeneID 63933)	0.65
23	MCUR1 (GeneID 63933)	0
24	MCUR1 (GeneID 63933)	1.58
25	AQP2 (GeneID 359)	0.06
26	AQP2 (GeneID 359)	-0.26
27	AQP2 (GeneID 359)	-0.51
28	AQP2 (GeneID 359)	-0.39
29	PCDHGA1 (GeneID 56114)	-1.66 (active)
30	PCDHGA1 (GeneID 56114)	-1.47
31	PCDHGA1 (GeneID 56114)	-0.92
32	PCDHGA1 (GeneID 56114)	-1.38
33	LINC03124 (GeneID 29798)	0.1
34	LINC03124 (GeneID 29798)	-0.41
35	LINC03124 (GeneID 29798)	-0.57
36	LINC03124 (GeneID 29798)	0.02
37	CRYGB (GeneID 1419)	1.82
38	CRYGB (GeneID 1419)	0.54
39	CRYGB (GeneID 1419)	1.59
40	CRYGB (GeneID 1419)	1.37
41	IGFBP4 (GeneID 3487)	0.02
42	IGFBP4 (GeneID 3487)	0.03
43	IGFBP4 (GeneID 3487)	0.14
44	IGFBP4 (GeneID 3487)	-0.35
45	KRT23 (GeneID 25984)	3.54 (active)
46	KRT23 (GeneID 25984)	1.51
47	KRT23 (GeneID 25984)	3.5 (active)
48	KRT23 (GeneID 25984)	-0.37
49	PSMA6 (GeneID 5687)	-1.74 (active)
50	PSMA6 (GeneID 5687)	-1.95 (active)
51	PSMA6 (GeneID 5687)	-1.93 (active)
52	PSMA6 (GeneID 5687)	-1.8 (active)
53	HCLS1 (GeneID 3059)	-0.92
54	HCLS1 (GeneID 3059)	-0.43
55	HCLS1 (GeneID 3059)	-1.32
56	HCLS1 (GeneID 3059)	-1.73 (active)
57	PLEKHA8 (GeneID 84725)	-0.49
58	PLEKHA8 (GeneID 84725)	-0.64
59	PLEKHA8 (GeneID 84725)	-0.63
60	SVOP (GeneID 55530)	-0.28
61	SVOP (GeneID 55530)	0.79
62	SVOP (GeneID 55530)	1.64
63	SVOP (GeneID 55530)	-0.38
64	PSMD4 (GeneID 5710)	0.85
65	PSMD4 (GeneID 5710)	0.63
66	PSMD4 (GeneID 5710)	1.28
67	PSMD4 (GeneID 5710)	0.77
68	ADAMTS7 (GeneID 11173)	-0.07
69	ADAMTS7 (GeneID 11173)	1.68
70	ADAMTS7 (GeneID 11173)	-0.73
71	CEP72 (GeneID 55722)	0.07
72	CEP72 (GeneID 55722)	0.13
73	CEP72 (GeneID 55722)	0.24
74	CEP72 (GeneID 55722)	-0.09
75	ZNF320 (GeneID 162967)	3 (active)
76	ZNF320 (GeneID 162967)	3.68 (active)
77	ZNF320 (GeneID 162967)	1.27
78	ZNF320 (GeneID 162967)	2.55
79	RIMS1 (GeneID 22999)	1.44
80	RIMS1 (GeneID 22999)	2.14
81	RIMS1 (GeneID 22999)	0.13
82	RIMS1 (GeneID 22999)	2.02
83	RAP2C (GeneID 57826)	-0.12
84	RAP2C (GeneID 57826)	-0.69
85	RAP2C (GeneID 57826)	-1.25
86	RAP2C (GeneID 57826)	-0.74
87	NAMPT (GeneID 10135)	-1.59 (active)
88	NAMPT (GeneID 10135)	-1.42
89	NAMPT (GeneID 10135)	-1.44
90	NAMPT (GeneID 10135)	-1.1
91	MTERF3 (GeneID 51001)	-0.15
92	MTERF3 (GeneID 51001)	-1.52 (active)
93	MTERF3 (GeneID 51001)	-1.2
94	MTERF3 (GeneID 51001)	-0.91
95	MAGEB18 (GeneID 286514)	-0.83
96	MAGEB18 (GeneID 286514)	-0.44
97	MAGEB18 (GeneID 286514)	-0.07
98	MAGEB18 (GeneID 286514)	-1.22
99	RPS9 (GeneID 6203)	-0.31
100	RPS9 (GeneID 6203)	-0.16
101	RPS9 (GeneID 6203)	-0.44
102	RPS9 (GeneID 6203)	0.41
103	NDST4 (GeneID 64579)	-0.34
104	NDST4 (GeneID 64579)	-0.18
105	NDST4 (GeneID 64579)	-1.37
106	NDST4 (GeneID 64579)	0.11
107	ZNF490 (GeneID 57474)	0.14
108	ZNF490 (GeneID 57474)	0.01
109	ZNF490 (GeneID 57474)	0.09
110	ZNF490 (GeneID 57474)	-0.73
111	PRXL2B (GeneID 127281)	-1.02
112	PRXL2B (GeneID 127281)	0.02
113	PRXL2B (GeneID 127281)	0.39
114	PRXL2B (GeneID 127281)	-0.53
115	NOSTRIN (GeneID 115677)	0.05
116	NOSTRIN (GeneID 115677)	1.03
117	NOSTRIN (GeneID 115677)	0.46
118	NOSTRIN (GeneID 115677)	2.19
119	KIF11 (GeneID 3832)	-0.54
120	KIF11 (GeneID 3832)	-0.66
121	KIF11 (GeneID 3832)	-1.33
122	KIF11 (GeneID 3832)	-0.21
123	MAU2 (GeneID 23383)	-0.82
124	MAU2 (GeneID 23383)	-0.23
125	MAU2 (GeneID 23383)	-0.13
126	MAU2 (GeneID 23383)	-0.11
127	TRIM60 (GeneID 166655)	-0.05
128	TRIM60 (GeneID 166655)	2.73
129	TRIM60 (GeneID 166655)	2.46
130	TRIM60 (GeneID 166655)	0.29
131	EPS8L1 (GeneID 54869)	-0.44
132	EPS8L1 (GeneID 54869)	1.19
133	EPS8L1 (GeneID 54869)	1.36
134	EPS8L1 (GeneID 54869)	0.1
135	NCEH1 (GeneID 57552)	1.84
136	NCEH1 (GeneID 57552)	2.66
137	NCEH1 (GeneID 57552)	1.54
138	NCEH1 (GeneID 57552)	2.05
139	BMPR1B (GeneID 658)	-1.29
140	BMPR1B (GeneID 658)	-1.06
141	BMPR1B (GeneID 658)	-1.12
142	BMPR1B (GeneID 658)	-0.9

Entries listed so far with an active call, once more:
gene	TNF reporter robust z-score
PCDHGA1 (GeneID 56114)	-1.66 (active)
KRT23 (GeneID 25984)	3.54 (active)
KRT23 (GeneID 25984)	3.5 (active)
PSMA6 (GeneID 5687)	-1.74 (active)
PSMA6 (GeneID 5687)	-1.95 (active)
PSMA6 (GeneID 5687)	-1.93 (active)
PSMA6 (GeneID 5687)	-1.8 (active)
HCLS1 (GeneID 3059)	-1.73 (active)
ZNF320 (GeneID 162967)	3 (active)
ZNF320 (GeneID 162967)	3.68 (active)
NAMPT (GeneID 10135)	-1.59 (active)
MTERF3 (GeneID 51001)	-1.52 (active)
